Reference: patent US20250206839A1, “METHODS, COMPOSITIONS AND USES FOR SEMA7A MONOCLONAL ANTIBODIES” (THE REGENTS OF THE UNIVERSITY OF COLORADO, A BODY CORPORATE, priority 2022, published 2025)
Residue numbers refer to the chain shown, from its start. These are yes or no findings as the source states them, for the method shown. Some entries that bind do so weakly or less than the wild type. For part of these data: Where a sequence is shown, tags or fusion partners need not be part of it.

What was measured:
[1] = molecular target: T1, SEMA7A on human breast cancer MCF7 SEMA7A overexpressing cells treated with TAPI-1 (human) (UniProt O75326); assay: immunofluorescence on MCF7 Sema7a OE cells, SmAb 250:1, FITC secondary 1000:1
T1 sequence: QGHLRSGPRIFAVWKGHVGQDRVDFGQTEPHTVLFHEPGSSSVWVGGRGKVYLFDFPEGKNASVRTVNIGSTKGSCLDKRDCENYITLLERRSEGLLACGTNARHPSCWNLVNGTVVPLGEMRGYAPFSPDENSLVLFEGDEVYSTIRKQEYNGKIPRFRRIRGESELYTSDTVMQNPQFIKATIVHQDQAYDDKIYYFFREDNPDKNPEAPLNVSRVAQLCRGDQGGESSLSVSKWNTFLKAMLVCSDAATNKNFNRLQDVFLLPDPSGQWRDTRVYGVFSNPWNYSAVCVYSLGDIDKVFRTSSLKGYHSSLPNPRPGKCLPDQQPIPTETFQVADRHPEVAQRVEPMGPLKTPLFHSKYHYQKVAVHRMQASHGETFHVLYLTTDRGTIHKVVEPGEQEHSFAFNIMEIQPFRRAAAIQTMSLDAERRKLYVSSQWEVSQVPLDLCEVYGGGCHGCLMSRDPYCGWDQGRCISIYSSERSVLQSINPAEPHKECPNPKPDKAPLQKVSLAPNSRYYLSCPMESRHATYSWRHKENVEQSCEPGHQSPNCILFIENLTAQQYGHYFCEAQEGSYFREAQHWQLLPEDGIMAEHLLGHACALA

[2] = molecular target: T2, endogenous SEMA7A (75 kDa) of MCF7 cells (human) (UniProt O75326); assay: Western blot of MCF7 cell lysates
T2 sequence: T1 sequence

[3] = molecular target: T3, V5 tagged SEMA7A (100 kDa) overexpressed in MCF7 cells (human) (UniProt O75326); assay: Western blot of MCF7 cell lysates
T3 sequence: T1 sequence

[4] = molecular target: T4, purified SEMA7A protein (human) (UniProt O75326); assay: ELISA on plate-coated purified SEMA7A, goat anti-mouse IgG HRP, absorbance at 425 nm [panel B, upper graph]
T4 sequence: T1 sequence

[5] = molecular target: T4, purified SEMA7A protein (human); assay: ELISA on plate-coated purified SEMA7A, goat anti-mouse IgG HRP, absorbance at 425 nm [panel B, lower graph]
[6] = molecular target: T2, endogenous SEMA7A (75 kDa) of MCF7 cells (human); assay: Western blot of cell lysates, 200 µg/mL antibody
[7] = molecular target: T3, V5 tagged SEMA7A (100 kDa) overexpressed in MCF7 cells (human); assay: Western blot of cell lysates, 200 µg/mL antibody
[8] = molecular target: T1, SEMA7A on human breast cancer MCF7 SEMA7A overexpressing cells treated with TAPI-1 (human); assay: immunofluorescence on fixed MCF7 SEMA7A overexpressing cells
[9] = molecular target: T4, purified SEMA7A protein (human); assay: ELISA, dose-response curve
[10] = molecular target: T2, endogenous SEMA7A (75 kDa) of MCF7 cells (human); assay: Western blot of MCF7 cell lysates probed with 200 ug/ml CUH1, goat anti-mouse IgG HRP [panel A]
[11] = molecular target: T3, V5 tagged SEMA7A (100 kDa) overexpressed in MCF7 cells (human); assay: as above
[12] = molecular target: T4, purified SEMA7A protein (human); assay: ELISA, plate coated with purified SEMA7A
[13] = molecular target: T4, purified SEMA7A protein (human); assay: ELISA on plate-coated purified SEMA7A, goat anti-mouse IgG HRP, absorbance at 425 nm
[14] = molecular target: recombinant anti-SEMA7A monoclonal antibody; assay: ELISA, peptide competition: antibody pre-incubated 1:10 with the SEMA7A peptide

Measured: binding

B1: SEMA7A monoclonal antibody SmAbH1 (antibody, V domains shown)
VH: QVKLQESGTVLARPGASVKMSCKASVYSFTSYWMHWVKQRPGQGLEWIGAIYPGNSDTSYNQKFKGKAKLTAVTSASTAYMELSSLTNEDSAVYYCTRGGAPTMITAYYAMDYWGQGTSVTVSS
VL: DIQMTQTTSSLSASLGDRVTISCRASQDISNYLNWYQQKPDGTVKLLIYYTSRLHSGVPSRFSGSGSGTDYSLTISNLEQEDIATYFCQQGNTLPWTFGGGTKLEIKR
not listed: [13] | [14]
binds: all other assays above

B2: recombinant anti-SEMA7A monoclonal antibody (antibody, mouse IgG1, kappa, V domains shown)
VH: B1 VH with Q1E, K3Q, E6Q, V26G
VL: B1 VL
binds: [12] | [13]

ADRHPEVAQR [immunizing SEMA7A peptide (10 amino acid SEMA7A peptide)]
binds: [14]
